PMC11538284

Amino acid sequences for entries named in this document (tags omitted).
UniProt Q6S8J3: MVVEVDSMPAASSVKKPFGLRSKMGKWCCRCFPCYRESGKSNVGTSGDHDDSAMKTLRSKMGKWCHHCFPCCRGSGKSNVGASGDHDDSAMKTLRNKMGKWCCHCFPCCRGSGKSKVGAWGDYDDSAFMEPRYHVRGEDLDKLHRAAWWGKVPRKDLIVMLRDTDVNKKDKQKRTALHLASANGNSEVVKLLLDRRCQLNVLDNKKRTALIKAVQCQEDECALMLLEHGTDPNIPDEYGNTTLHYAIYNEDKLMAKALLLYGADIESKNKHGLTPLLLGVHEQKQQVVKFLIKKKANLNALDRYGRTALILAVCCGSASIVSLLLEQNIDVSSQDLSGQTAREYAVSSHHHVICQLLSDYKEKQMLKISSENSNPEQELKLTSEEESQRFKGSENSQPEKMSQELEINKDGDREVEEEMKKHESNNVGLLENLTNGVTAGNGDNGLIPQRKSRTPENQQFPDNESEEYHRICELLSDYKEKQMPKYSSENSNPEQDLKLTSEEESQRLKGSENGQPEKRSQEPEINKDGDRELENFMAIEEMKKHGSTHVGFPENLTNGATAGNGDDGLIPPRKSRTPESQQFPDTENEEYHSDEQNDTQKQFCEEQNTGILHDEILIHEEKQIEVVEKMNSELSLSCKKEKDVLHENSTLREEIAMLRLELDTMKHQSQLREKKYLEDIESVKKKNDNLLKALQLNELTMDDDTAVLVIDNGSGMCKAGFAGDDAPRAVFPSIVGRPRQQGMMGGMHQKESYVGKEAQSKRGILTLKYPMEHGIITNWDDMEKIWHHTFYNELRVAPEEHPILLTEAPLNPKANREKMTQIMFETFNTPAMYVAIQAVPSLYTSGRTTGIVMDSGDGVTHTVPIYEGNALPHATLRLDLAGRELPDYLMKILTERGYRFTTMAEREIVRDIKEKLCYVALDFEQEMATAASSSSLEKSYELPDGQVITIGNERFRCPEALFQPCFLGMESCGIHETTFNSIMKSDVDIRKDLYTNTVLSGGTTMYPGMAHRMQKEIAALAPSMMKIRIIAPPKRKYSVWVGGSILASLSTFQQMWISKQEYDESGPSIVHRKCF
UniProt O60264: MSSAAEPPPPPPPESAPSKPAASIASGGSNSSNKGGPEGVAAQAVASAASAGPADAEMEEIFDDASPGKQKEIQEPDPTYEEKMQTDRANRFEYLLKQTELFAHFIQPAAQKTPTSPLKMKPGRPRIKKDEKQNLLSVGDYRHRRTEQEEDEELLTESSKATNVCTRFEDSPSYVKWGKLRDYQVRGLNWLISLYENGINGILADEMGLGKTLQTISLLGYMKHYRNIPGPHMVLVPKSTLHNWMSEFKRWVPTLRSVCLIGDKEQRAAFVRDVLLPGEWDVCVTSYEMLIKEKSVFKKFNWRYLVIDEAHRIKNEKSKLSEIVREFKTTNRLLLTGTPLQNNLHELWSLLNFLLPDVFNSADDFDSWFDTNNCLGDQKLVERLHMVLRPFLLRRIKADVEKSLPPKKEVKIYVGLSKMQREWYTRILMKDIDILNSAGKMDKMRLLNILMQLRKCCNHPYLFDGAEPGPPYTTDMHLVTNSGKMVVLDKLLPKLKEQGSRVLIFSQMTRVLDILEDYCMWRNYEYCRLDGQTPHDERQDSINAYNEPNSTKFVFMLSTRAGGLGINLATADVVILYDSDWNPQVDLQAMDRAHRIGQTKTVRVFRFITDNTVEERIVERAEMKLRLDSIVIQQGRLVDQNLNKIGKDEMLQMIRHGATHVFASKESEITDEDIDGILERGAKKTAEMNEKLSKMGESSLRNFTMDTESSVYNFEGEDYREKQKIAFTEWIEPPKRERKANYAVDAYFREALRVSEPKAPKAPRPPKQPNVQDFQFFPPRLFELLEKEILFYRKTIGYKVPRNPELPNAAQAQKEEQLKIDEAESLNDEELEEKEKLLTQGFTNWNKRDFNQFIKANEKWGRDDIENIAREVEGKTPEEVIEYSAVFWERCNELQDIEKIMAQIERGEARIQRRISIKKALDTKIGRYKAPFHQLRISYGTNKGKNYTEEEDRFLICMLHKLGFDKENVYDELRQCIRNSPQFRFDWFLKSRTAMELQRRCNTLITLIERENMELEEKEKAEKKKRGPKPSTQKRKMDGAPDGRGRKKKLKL

T1: Ubiquitin-specific protease 3 (USP3), endogenous (human (endogenous in PC3)) (UniProt Q9Y6I4)
T1 sequence: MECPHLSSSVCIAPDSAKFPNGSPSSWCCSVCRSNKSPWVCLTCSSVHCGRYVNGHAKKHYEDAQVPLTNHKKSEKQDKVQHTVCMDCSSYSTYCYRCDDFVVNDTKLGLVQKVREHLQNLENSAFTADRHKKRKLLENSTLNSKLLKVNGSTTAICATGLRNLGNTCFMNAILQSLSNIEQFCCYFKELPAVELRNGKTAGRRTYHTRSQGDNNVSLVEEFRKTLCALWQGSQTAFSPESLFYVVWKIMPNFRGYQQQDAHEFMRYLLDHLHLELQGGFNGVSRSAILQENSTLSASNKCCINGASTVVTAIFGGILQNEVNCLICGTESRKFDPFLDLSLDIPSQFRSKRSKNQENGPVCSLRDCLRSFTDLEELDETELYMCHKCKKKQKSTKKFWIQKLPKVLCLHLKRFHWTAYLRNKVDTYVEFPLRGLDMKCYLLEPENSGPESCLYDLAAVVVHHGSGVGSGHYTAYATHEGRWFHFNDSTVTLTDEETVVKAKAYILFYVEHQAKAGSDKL


Molecular target: T1, Ubiquitin-specific protease 3 (USP3), endogenous (human (endogenous in PC3))
Experiment: affinity purification with mass spectrometry; PC3 cells lysed, immunoprecipitation with anti-USP3 antibody and protein A/G agarose beads, gel stained with silver, mass spectrometry

Molecule	binding
POTEE (from UniProt Q6S8J3 1-1075)	binds
SMARCA5, SWI/SNF-related matrix-associated actin-dependent regulator of chromatin subfamily A member 5, endogenous (from UniProt O60264 1-1052) (enzyme)	binds
TTN (from UniProt Q8WZ42 1-34350)	binds
EBNA1BP2 (protein, UniProt Q99848 1-306) MDTPPLSDSESESDESLVTDRELQDAFSRGLLKPGLNVVLEGPKKAVNDVNGLKQCLAEFKRDLEWVERLDVTLGPVPEIGGSEAPAPQNKDQKAVDPEDDFQREMSFYRQAQAAVLAVLPRLHQLKVPTKRPTDYFAEMAKSDLQMQKIRQKLQTKQAAMERSEKAKQLRALRKYGKKVQTEVLQKRQQEKAHMMNAIKKYQKGFSDKLDFLEGDQKPLAQRKKAGAKGQQMRKGPSAKRRYKNQKFGFGGKKKGSKWNTRESYDDVSSFRAKTAHGRGLKRPGKKGSNKRPGKRTREKMKNRTH	binds

Results are given in words; binding and its absence hold for the method and conditions named. In cells and extracts the contact can be indirect. These calls come from enrichment with a bait or labelling near it, and not all partners need be listed.
